# Some of these results come from one statement about several compounds together.
# Tested on: Yellow Fever Mosquito (Aedes aegypti) neonate larvae
# Test: Yellow fever mosquito larval motility assay in microtiter plates
# Format: in vivo
# Settings: neonate A. aegypti larvae, dose response assay, motility vs DMSO control wells
# Description: B.4. Activity Against Yellow Fever Mosquito (Aedes aegypti)
# The compounds were formulated in 100% DMSO and were tested in microtiter plates containing 180 ul 1× Luria Broth media and 10 neonate A. aegypti larvae. The efficacy of a compound was determined based on the motility of the larvae as compared to average motility of control wells containing DMSO only. Compounds with >80% reduction in motility at a concentration of 10 ppm were tested in a dose response assay to determine EC50 values.
row,SMILES,EC50 (reduction in larval motility)
1,CC(Nc1ncnc2scc(Cl)c12)c1ccc(SC(F)F)cc1 (stereo not drawn) [C.2],< 1 ppm
2,FC(F)(F)Sc1ccc(CNc2ncnc3scc(Cl)c23)cc1 [C.1],< 1 ppm
3,CC(Nc1ncnc2scc(Cl)c12)c1ccc(SC(F)(F)C(F)(F)F)cc1 (stereo not drawn) [C.6],< 1 ppm
4,CC(Nc1ncnc2scc(Cl)c12)c1ccc([S+]([O-])C(F)(F)F)cc1 (stereo not drawn) [C.4],< 1 ppm
5,CC(Nc1ncnc2scc(Cl)c12)c1ccc(SC(F)(F)F)cc1 (stereo not drawn) [C.3],< 1 ppm
6,CC(Nc1ncnc2scc(Cl)c12)c1ccc(SCC(F)(F)F)cc1 (stereo not drawn) [C.5],< 1 ppm

# — US9133209B2, “Insecticidal 4-amino-thieno[2,3-D]-pyrimidine compounds and methods of their use” (priority 2009, dated 2015)
